Measurements taken from patent EP4624482A1, “PYRIMIDOPYRIMIDINONE COMPOUND AND PHARMACEUTICAL COMPOSITION COMPRISING SAME” (Axceso Biopharma Co., Ltd., priority 2022, dated 2024).
At least one structure is not confirmed: it was looked up by name or label, or the drawing left a doubt.

Test system: C57BL/6 mice
Assay: Survival in sepsis induced by cecal ligation and puncture (CLP)
Format: in vivo
Details: 100 ng/mouse (5 µg/kg) at 6 and 16 hours after CLP
Protocol: C57BL/6 mice aged 7-8 weeks were purchased from Jabio (Suwon, Gyeonggi-do) and sepsis was induced by cecal ligation and puncture (CLP).
Specifically, after anesthesia using 150 mg/kg of ketamine and 17.5 mg/kg of rompun, an abdominal incision of 1-2 cm was made to expose the cecum to induce sepsis. The cecum was ligated with 6-0 silk sutures at the distal end of the ileocecal valve, and a puncture was made with an 18-gauge needle. The perforated cecum was gently squeezed to push out 1-2 cm of feces, and the cecum was then retracted back into the abdominal cavity. The abdomen was then closed and pre-warmed normal saline (2.5 mL/100 g body weight) was injected into the mouse abdominal cavity immediately after the procedure. 6 and 16 hours after CLP treatment, the compound of formula (1a-1) was dissolved in phosphate buffered saline (PBS) and injected intravenously at 100 ng/mouse (5 µg/kg), and survival was examined for 10 days. […] In addition, as a drug-negative control, survival was examined in mice that received only PBS after CLP treatment.
For comparison, we also examined the survival of a control group treated with fingolimod (FTY720), a known S1P modulator, instead of the compound of formula (1a-1) under the same conditions.

## CCCCCCCCc1ccc(CCC(N)(CO)CO)cc1 [FTY720, fingolimod, reference compound]
  survival (in words): did not improve survival
